# Reference: the supplement of paper PMC12067093, “Discovery and optimisation of a covalent ligand for TRIM25 and its application to targeted protein ubiquitination” (Chemical Science, 2025)
# Some of the results follow.
# Compound: Cc1cc(ccc1-c1ccccc1)C(=O)N1CCCN(CC1)C(=O)CCl [compound 10]
# Test: probe-labelled cysteine peptide fold change vs DMSO (competition) (log2 fold change); higher = less target engagement (more negative = stronger competition)
# Details: 50 µM; THP-1; incubation time: 4 h
# 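Further: competitive profiling in live THP-1 cells: cysteine peptides tagged with an iodoacetamide desthiobiotin (IA-DTB) probe, intensity after compound treatment relative to DMSO-treated cells.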
row,Target,probe-labelled cysteine peptide fold change
1,DICER1_Q9UPY3_1063_LHCLLTAEELR (UniProt Q9UPY3),0.115
2,DHX30_Q7L2E3_1183_GPCGSFDVR (UniProt Q7L2E3),0.0114
3,DMXL2_Q8TDJ6_1897_VGCPVLALEVLSK (UniProt Q8TDJ6),-0.0631
4,DNAJA2_O60884_146_NVLCSACSGQGGK (UniProt O60884),-0.408
5,DLGAP5_Q15398_492_QFEGLVDDCEYKR (UniProt Q15398),-0.0329
6,DIS3L2_Q8IYB7_303_DYANTLFICR (UniProt Q8IYB7),-0.0215
7,DNAJC3_Q13217_184_ILEVCVWDAELR (UniProt Q13217),0.13
8,DNAJB11_Q9UBS4_196_FQMTQEVVCDECPNVK (UniProt Q9UBS4),0.148
9,DHX9_Q08211_438_AAECNIVVTQPR (UniProt Q08211),0.174
10,DNAJC7_Q99615_337_RAQCYMDTEQYEEAVR (UniProt Q99615),-0.215
11,DNAJB1_P25685_179_VSLEEIYSGCTKK (UniProt P25685),-0.598
12,DNM1_Q05193_607_QLELACETQEEVDSWK (UniProt Q05193),-0.00837
13,DHX38_Q92620_20_GDTSEDASIHRLEGTDLDCQVGGLICK (UniProt Q92620),-0.112
14,DNAJC7_Q99615_175_ALEFAPACHR (UniProt Q99615),-0.577
15,DHX29_Q7Z478_1025_CNLGSPEDFLSK (UniProt Q7Z478),-0.143
16,DHX9_Q08211_940_FCEHKR (UniProt Q08211),-0.181
17,DHX38_Q92620_1074_CICAAYFHQAAK (UniProt Q92620),-0.05
18,DHX9_Q08211_242_LAAQSCALSLVR (UniProt Q08211),0.152
19,DLD_P09622_306_AEVITCDVLLVCIGR (UniProt P09622),0.188

row,Target,probe-labelled cysteine peptide fold change
1,DNAJC7_Q99615_317_LDDAIEDCTNAVK (UniProt Q99615),0.123
2,DNM1L_O00429_367_ICYIFHETFGR (UniProt O00429),-0.657
3,DNAJC7_Q99615_7_AAAAECDVVMAATEPELLDDQEAK (UniProt Q99615),0.335
4,DIDO1_Q9BTC0_261+273_AAQDIKDEEPGDLGRPKPECEGYDPNALYCICR (UniProt Q9BTC0),-0.859
5,DIAPH1_O60610_1005_NAGAFGFNISFLCK (UniProt O60610),0.104
6,DNAJA1_P31689_149+150+153_GAVECCPNCR (UniProt P31689),-0.922
7,DMXL2_Q8TDJ6_2925_KGHVCIFDIR (UniProt Q8TDJ6),0.0183
8,DIS3L2_Q8IYB7_797_IYCNALALR (UniProt Q8IYB7),0.537
9,DHX37_Q8IY37_616_LCVVATNVAETSLTIPGIK (UniProt Q8IY37),0.0852
10,DNAJC16_Q9Y2G8_709_YFCLFKPQK (UniProt Q9Y2G8),0.111
11,DIS3L_Q8TF46_88_GIIFMQTACQAVQHQR (UniProt Q8TF46),0.0776
12,DIMT1_Q9UNQ2_259_IHCSVHNIIIPEDFSIADK (UniProt Q9UNQ2),0.229
13,DNMT1_P26358_62_NQLCDLETK (UniProt P26358),-0.373
14,DICER1_Q9UPY3_443_EKPETNFPSPFTNILCGIIFVER (UniProt Q9UPY3),0.407
15,DNAJA1_P31689_302_CVLNEGMPIYR (UniProt P31689),0.091
16,DMXL1_Q9Y485_1352_CIAGEVVALNEAESNHER (UniProt Q9Y485),-0.189
17,DIDO1_Q9BTC0_296_CEEWFHGDCVGISEAR (UniProt Q9BTC0),0.114
18,DNAJC13_O75165_2110_RADTVGLACEAINR (UniProt O75165),0.108

# Some values from the list.
# probe-labelled cysteine peptide fold change, DHX38_Q92620_20_GDTSEDASIHRLEGTDLDCQVGGLICK (UniProt Q92620) reads -0.112
# probe-labelled cysteine peptide fold change, DNAJB11_Q9UBS4_196_FQMTQEVVCDECPNVK (UniProt Q9UBS4) reads 0.148
